Measurements: article PMC7819943, “Rice protein-binding microarrays: a tool to detect cis-acting elements near promoter regions in rice”
This is one part of the list.

These sequences were tested against T1, OsSMF1 (Oryza sativa, UniProt Q6ZLB0 1-436) (assay: protein-binding microarray (RPBM); PBS, 2% BSA, 51.3 ng/ul salmon testes DNA, 50 uM zinc acetate, 200 nM TF, 25 C, 1 h; high values mean tight binding). Details: protein: recombinant; tags: N-terminal polyhistidine and DsRed monomer fusion (pET32a); chain copies: 2; label: CyDye5-dUTP incorporated in the synthesized complementary strand; 3' TTTTT single-stranded linker to array surface; dsDNA, one strand shown.
T1 sequence: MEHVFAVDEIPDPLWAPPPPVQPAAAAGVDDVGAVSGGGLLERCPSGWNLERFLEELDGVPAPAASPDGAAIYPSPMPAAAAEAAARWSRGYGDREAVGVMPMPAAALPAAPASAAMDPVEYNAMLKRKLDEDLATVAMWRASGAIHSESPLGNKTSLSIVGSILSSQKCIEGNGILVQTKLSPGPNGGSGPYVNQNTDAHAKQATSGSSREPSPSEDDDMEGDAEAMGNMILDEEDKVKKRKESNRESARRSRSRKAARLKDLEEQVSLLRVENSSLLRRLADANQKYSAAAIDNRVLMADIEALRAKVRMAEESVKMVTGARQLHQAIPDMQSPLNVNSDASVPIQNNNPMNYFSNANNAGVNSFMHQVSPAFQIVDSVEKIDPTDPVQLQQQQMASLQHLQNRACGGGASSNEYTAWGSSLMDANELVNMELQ
Procedure, shortened: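 Using Ni–NTA, transcription factors fused N-terminally to polyhistidine and DsRed were purified after expression in E. coli BL21-CodonPlus. These were incubated at 200 nM with a blocked, double-stranded custom Agilent array for 1 h at 25 °C in a buffer containing 50 µM zinc acetate, and the array was washed. The binding signal is per-feature fluorescence intensity (arbitrary units) on an Axon 4000B scanner.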
“TTATTGTGTGTACGTGCCAAGATCAAATTGCGATTCCTGACGGAGTCACCTAGTGCAG” was tested, and the binding signal was 3480 fluorescence intensity (a.u.). “ACACACGCGTCTCCACAACACGTCCCTCCAGGTCCAACCCCGGAGTCACCTAGTGCAG” was tested, and the binding signal was 4240 fluorescence intensity (a.u.). “CCACGCGCGCCAGCGATCGCCACGCCACGCCGCCGTCGCACGGAGTCACCTAGTGCAG” was tested, and the binding signal was 36100 fluorescence intensity (a.u.). “AATTTGTTTGGAATTTATTATGGTGATGACTGGGAAGGCCCGGAGTCACCTAGTGCAG” was tested, and the binding signal was 3140 fluorescence intensity (a.u.). With “AGGTGATGATGTGGATCACGCTGACATGTGGGGCTCACGTCGGAGTCACCTAGTGCAG” the binding signal was 7940 fluorescence intensity (a.u.). “CAAGCTGCTTCATAAAATGCAGTATAGTTTGGGAAGAGTGCGGAGTCACCTAGTGCAG” was tested, and the binding signal was 24400 fluorescence intensity (a.u.). In the case of “TGTGTGAACGTGACACGTCATCCTATTTAGAATCGAATACCGGAGTCACCTAGTGCAG”, the binding signal is reported as 19500 fluorescence intensity (a.u.). In the case of “TTGCAAAACTCTTCTAAAGATATCTAGATAAATTCTTTCTCGGAGTCACCTAGTGCAG”, the binding signal is reported as 20500 fluorescence intensity (a.u.). In the case of “TGATTGATTAGTCACCACACCACAGTGCCACACACGTAGTCGGAGTCACCTAGTGCAG”, the binding signal is reported as 3220 fluorescence intensity (a.u.). “CTCATCAGTCGCACGTACCACACCAGCATCCTCGCACGGTCGGAGTCACCTAGTGCAG” was tested, and the binding signal was 4530 fluorescence intensity (a.u.). For “CCCAGCGCGAAGCGGACGGCGATCGCGGACCGCGTGGGCTCGGAGTCACCTAGTGCAG”, the binding signal was 23000 fluorescence intensity (a.u.). In the case of “TTTTGTGGTTGAGGGGTACGATTAGATCTAAGGCAAGACACGGAGTCACCTAGTGCAG”, the binding signal is reported as 3200 fluorescence intensity (a.u.). In the case of “GGAGAGACTCGTGAAGTCGTTGAAGGGAAGGTTGACTGGACGGAGTCACCTAGTGCAG”, the binding signal is reported as 3410 fluorescence intensity (a.u.). “CGCCGTTCCGTTTCCTCATCCAAACTACACGCACTACCTCCGGAGTCACCTAGTGCAG” was tested, and the binding signal was 4150 fluorescence intensity (a.u.). For “CGACGAGAACTTCATTCACGATGACGAGGAGGTTAGCTGGCGGAGTCACCTAGTGCAG”, the binding signal was 3750 fluorescence intensity (a.u.). For “GATCCCCAATTCGAGATGAATCATGACAAATCATCCGTGTCGGAGTCACCTAGTGCAG”, the binding signal was 4450 fluorescence intensity (a.u.). In the case of “CACCGACGCCCTCCTCCTCCCGCCAGCTGACTCAGAAGGGCGGAGTCACCTAGTGCAG”, the binding signal is reported as 6020 fluorescence intensity (a.u.). With “GACGCATGCACGCCGCCACGTCGCGCGCCATGGCCACCCCCGGAGTCACCTAGTGCAG” the binding signal was 9700 fluorescence intensity (a.u.). For “TCGATTTGCCGCTCACTTCCATCCCTATGAGCATGCAGTGCGGAGTCACCTAGTGCAG”, the binding signal was 3810 fluorescence intensity (a.u.). “GATGTTTGGGGTGATGTTTCGACATACTCGCTACTATCGACGGAGTCACCTAGTGCAG” was tested, and the binding signal was 3230 fluorescence intensity (a.u.). With “AAATAAATAAAATGAAGTTGACCTGTCACCTGTATGAGAGCGGAGTCACCTAGTGCAG” the binding signal was 4580 fluorescence intensity (a.u.). With “TCGTACCGGTACGTGACACATCTTAATACAATGAATCTTGCGGAGTCACCTAGTGCAG” the binding signal was 4230 fluorescence intensity (a.u.). In the case of “TAAACTCAAACGGACGAAATATGTGGCATGTGGAATTTTCCGGAGTCACCTAGTGCAG”, the binding signal is reported as 30000 fluorescence intensity (a.u.). With “GCGAGCTGTGCCGTTCTTGATCACCGAGGCGATGGCGGCGCGGAGTCACCTAGTGCAG” the binding signal was 39200 fluorescence intensity (a.u.). For “CGATATACGTACACATGTGACATGACGTAATTTTACATCCCGGAGTCACCTAGTGCAG”, the binding signal was 4320 fluorescence intensity (a.u.). In the case of “ACGGTGTCTAACAGAGTGAAAGTGACGGCGATGGCATTTTCGGAGTCACCTAGTGCAG”, the binding signal is reported as 3250 fluorescence intensity (a.u.). In the case of “CCTTCTCCATGGAGGACTACCTCGTCGACACCTGCGGCCTCGGAGTCACCTAGTGCAG”, the binding signal is reported as 3440 fluorescence intensity (a.u.). For “TCGCTTCGCTCGCATCACGTGGCTCCGCCTCCTCGTCTCCCGGAGTCACCTAGTGCAG”, the binding signal was 4410 fluorescence intensity (a.u.). In the case of “CACAACTTTTGATTTCAGGACATATGTGTTCAGCTTTCCTCGGAGTCACCTAGTGCAG”, the binding signal is reported as 3370 fluorescence intensity (a.u.). For “TCTCTTCATCGTCGTCAGCGGCCTTGTATATTAGTGGTCACGGAGTCACCTAGTGCAG”, the binding signal was 5230 fluorescence intensity (a.u.). “GGAAGGCGACGCGTTACTGTGCACGATGCGGACCTCGAAACGGAGTCACCTAGTGCAG” was tested, and the binding signal was 60400 fluorescence intensity (a.u.). “ATACATTCCACATGGATTCATAGTCATGAGTCTATTTTCTCGGAGTCACCTAGTGCAG” was tested, and the binding signal was 4100 fluorescence intensity (a.u.). With “GTTCTCTCCAACTTGACTCAACATTAGTACACAATAGTATCGGAGTCACCTAGTGCAG” the binding signal was 4250 fluorescence intensity (a.u.). For “CCGAGCCACGTCGCGCCGCCGCCGCTGCTGTGCCGCCGCGCGGAGTCACCTAGTGCAG”, the binding signal was 5650 fluorescence intensity (a.u.). In the case of “TAAACAAACCATTTCCTCCCCGCTATTGCGACTCCCGCCTCGGAGTCACCTAGTGCAG”, the binding signal is reported as 22900 fluorescence intensity (a.u.). In the case of “ATATTAAAATACGGAGGGAGTACTTGTTTACAGTTCTAAGCGGAGTCACCTAGTGCAG”, the binding signal is reported as 3410 fluorescence intensity (a.u.). For “ATGGCTGGCATTAGACTACACGTCGTTGCTCCACTTGTGTCGGAGTCACCTAGTGCAG”, the binding signal was 5280 fluorescence intensity (a.u.). For “TCATTGCTCTAAAATAATCTCTATATGTTGTCAAGTAGGACGGAGTCACCTAGTGCAG”, the binding signal was 3300 fluorescence intensity (a.u.). For “TCCTCCACCACTCACACTCCGCCACGTGTCCATCTAAGCCCGGAGTCACCTAGTGCAG”, the binding signal was 17000 fluorescence intensity (a.u.). With “GGCCCATCACACGCGGCGCCTCTCTCTCCCTCTCCCCAAACGGAGTCACCTAGTGCAG” the binding signal was 3700 fluorescence intensity (a.u.). For “GTCAAGTTGCTTTTGCATTTGCATACGCACACACTGCCATCGGAGTCACCTAGTGCAG”, the binding signal was 3830 fluorescence intensity (a.u.). With “ACATTATCATGTCACGTCGTCGCGTAATCATGGGTACCCACGGAGTCACCTAGTGCAG” the binding signal was 4200 fluorescence intensity (a.u.). In the case of “ATATTCAGCTGATTGGGGCATTGGGTATTTGCAGTGAGCACGGAGTCACCTAGTGCAG”, the binding signal is reported as 3460 fluorescence intensity (a.u.). For “ATCCATGCGGACGCAGCTAGCAGTCGTCGTTGCGTTGCTTCGGAGTCACCTAGTGCAG”, the binding signal was 3620 fluorescence intensity (a.u.). “AAAACAATATTAAAGGTATAAGTACATCGTGTATGTTTTACGGAGTCACCTAGTGCAG” was tested, and the binding signal was 6520 fluorescence intensity (a.u.). With “GAACTCCGGTCGGGATCGCGTAAACTGCGACGTGGGCTTGCGGAGTCACCTAGTGCAG” the binding signal was 3780 fluorescence intensity (a.u.). In the case of “CAAAATCGGATACAACGCATCCCTCAACTTACAAAACCGTCGGAGTCACCTAGTGCAG”, the binding signal is reported as 3490 fluorescence intensity (a.u.). In the case of “TTATTTGTTTAATTAGGACGTTCCACGTGTTTGACTATCACGGAGTCACCTAGTGCAG”, the binding signal is reported as 8620 fluorescence intensity (a.u.). “GGGGCAAGCAATGCCACGTATGTTTGTCACAGTTTGCAGGCGGAGTCACCTAGTGCAG” was tested, and the binding signal was 13400 fluorescence intensity (a.u.). For “TTTCATCCGATGTTTCGTGAGGGGTGACAAATTAATTGATCGGAGTCACCTAGTGCAG”, the binding signal was 3980 fluorescence intensity (a.u.). With “TCTTGGGGTGCTCGAACACGACGTGGCTCCACGCCGACCGCGGAGTCACCTAGTGCAG” the binding signal was 6760 fluorescence intensity (a.u.). In the case of “GCGTTGCTCCGGTGCTCGATCGGTCTCCCCGCCCGGCCGCCGGAGTCACCTAGTGCAG”, the binding signal is reported as 9620 fluorescence intensity (a.u.). In the case of “AAGCCCAAAATTTAGTAGGACGTCACTTCTCACTACCTGGCGGAGTCACCTAGTGCAG”, the binding signal is reported as 3800 fluorescence intensity (a.u.). For “CACACCACAAGCGCACGACACACGTCACACACAAACCAACCGGAGTCACCTAGTGCAG”, the binding signal was 7680 fluorescence intensity (a.u.).
